3 substances from patent US8546072B2 (Wako Pure Chemical Industries, Ltd., priority 2008, dated 2013) can be followed below.

This data set is described as follows: general procedure: solution-phase peptide synthesis; DCC/hydroxybenzotriazole.

In turn, Boc-Thr-Gly-Arg(NO2)-Gly-NH(CH2)4NHTfa had a step yield (coupling step) of 63.0%. Turning to Boc-Thr-Gly-Arg-Gly-NH(CH2)4NH2, the step yield (late stage modification step) amounted to 20.3%. As for Boc-Thr-Gly-Arg-Gly-NH(CH2)4NHTfa, the step yield (late stage modification step) is given as 17.1%.
